PubChem BioAssay AID493014 (National Center for Advancing Translational Sciences (NCATS), 2011)
In all, about 340,000 compounds went through this assay and about 170 (0.05%) were called active. Inconclusive results, whose numbers are uncertain, are shown with a selection of clear calls. The call rests on the fitted dose curve; in most records, active means well fitted inhibition curve with a large enough effect in the signal ratio, with a control signal flat (not every such curve was filed as active); inconclusive means small, poorly fitted or top-dose-only effect, or effect the other way, or a change in a side signal; inactive means flat fitted curve, though single readings scatter; the % refers to the signal ratio. Potencies of inconclusive entries are doubtful fits and often do not repeat.

Test: qHTS Assay to Find Inhibitors of Chronic Active B-Cell Receptor Signaling;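 on activity change, negative = inhibition: plate controls were basal doxycycline-induced cells for no effect and cells given 10 µM MG132 for full effect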
Conditions: ABC-DLBCL IkBa-CBG/CBR reporter, luminescence ratio (green luciferase fused to IkBa over red control in TMD8 lymphoma cells), 4 h; activity change, negative = inhibition: at 46.1 µM (top of the series)
Method in brief: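 TMD8 human ABC-DLBCL cells with doxycycline-inducible IκBα–green luciferase fusion and unfused red luciferase, in 0.5% FBS medium; compounds up to 46 uM, 4 h at 37C. Green/red luminescence ratio, filter-overlap corrected, fitted to concentration-response curves.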
Potency means the concentration at half of the fitted maximal effect.

Row | SMILES | Potency | activity change, negative = inhibition
1 | Cc1ccc(/C=C/C(=O)CCC(=O)O)cc1 | inconclusive: 35.5 µM [falling, single point] | –
2 | Cc1cc(C)cc(C(=O)Nc2cccnc2Cl)c1 | – | inconclusive: -1.01%
3 | COc1ccc(OC)c(/C=C/C(=O)OCC(=O)N2CCCCC2)c1 | – | inactive: -3.27%
4 | O=C(NC(=S)Nc1ccc2[nH]ncc2c1)c1ccccc1 | – | inconclusive: -9.63%
5 | CCCCC(=O)NC(c1ccccc1Cl)c1c(O)ccc2ccccc12 (configuration not stated) | – | inactive: 8.76%
6 | C=CCOc1c(Br)cc(/C=C(\C#N)C(N)=O)cc1OC | inconclusive: 35.5 µM [falling, single point] | –
7 | COc1cc(NC(=O)c2c(F)c(F)c(F)c(F)c2F)c(OC)cc1Cl | inconclusive: 25.9 µM [falling, single point] | –
8 | CCOC(=O)N1CCN(C(=O)C2CCN(S(=O)(=O)c3ccc(Cl)cc3)CC2)CC1 | – | inconclusive: 2.57%
9 | Cn1c(=O)[nH]c(=O)c2c1nc(N1CCN(CCO)CC1)n2Cc1ccccc1Cl | inconclusive: 25.1 µM [falling, single point] | –
10 | COc1cc(C(=O)Nc2nc3ccc(S(C)(=O)=O)cc3s2)cc(OC)c1C | inconclusive: 0.501 µM [falling, partial curve, poor fit] | –
11 | Cn1nc(C(=O)N2CCC(C(N)=O)CC2)c2c1-c1ccccc1SC2 | – | inactive: -0.403%
12 | CCn1c(/C=C/c2ccccc2)nc2ccccc2c1=O | inconclusive: 20 µM [falling, partial curve, poor fit] | –
13 | CCOc1ccc2c(c1)OC(c1ccc(OC)cc1)(C(F)(F)F)NC2=O (configuration not stated) | inconclusive: 4.11 µM [falling, partial curve, poor fit] | –
14 | CCOc1ccc(S(=O)(=O)N(CC(N)=O)c2ccc(C)cc2)cc1 | – | inconclusive: 1.82%
15 | O=C(NCCCc1nc2ccccc2[nH]1)c1ccc(F)cc1 | – | inconclusive: -28.8%
16 | COc1cccc(NC(=O)NCc2ccccc2F)c1 | inconclusive: 17.8 µM [falling, partial curve, poor fit] | –
17 | CCC(=O)c1c(NC)cc(C)oc1=O | – | inconclusive: -3.16%
18 | Cc1cc(C)cc(NC(=O)CSc2nnc(-c3ccccc3)n2N)c1 | – | inconclusive: -0.618%
19 | COc1cc(OC)c(N(C)C(=O)CCNC(=O)Cn2cnc3ccccc3c2=O)cc1Cl | – | inconclusive: -13.3%
20 | O=C(N1CCCCCC1)n1c(Cc2ccccc2)nc2ccccc21 | inconclusive: 32.6 µM [falling, single point] | –
21 | CC(=O)Nc1ccc(NC(=O)C(C)O/N=C/c2cccc([N+](=O)[O-])c2)cc1 (configuration not stated) | – | inconclusive: -15.8%

Row | SMILES | Potency | activity change, negative = inhibition
22 | CN(C)CCNC(=O)Cn1c(=O)c2cccn2c2ccc(F)cc21 | – | inactive: 6.7%
23 | COc1ccc(CCNC(=O)c2ccc(NC(=O)CC3SC(N4CCCC4)=NC3=O)cc2)cc1 (configuration not stated) | – | inactive: 1.92%
24 | CCO[C@H]1OC(C(=O)N2CCCCCCC2)=C[C@@H](c2ccc(C(F)(F)F)cc2)[C@@H]1CCCO | – | inconclusive: 2.93%
25 | CC(NC(=S)Nc1ccc(OC(F)F)cc1)c1ccc(F)cc1 (configuration not stated) | – | inactive: -0.112%
26 | Cc1nnc(NC(=O)c2ccc3c(c2)OCO3)s1 | – | inactive: 19.8%
27 | CCOc1ccc(OCCSc2nc3ccccc3n2CC(=O)O)cc1 | – | inconclusive: -0.618%
28 | CCOC(=O)C1=C(C)N=C2SCCC(=O)N2C1c1ccc(C(=O)OC)cc1 (configuration not stated) | – | inconclusive: 3.79%
29 | O=C(NC(NC(=S)Nc1c(Cl)cc(Cl)cc1Cl)C(Cl)(Cl)Cl)OCc1ccccc1 (configuration not stated) | inconclusive: 4.11 µM [rising, full curve, poor fit] | –
30 | CCOc1cc(C(=S)N2CCCC2)ccc1OCc1ccccc1 | – | inconclusive: 1.63%
31 | O=c1[nH]c2cc(NCCO)c([N+](=O)[O-])cc2[nH]1 | – | inconclusive: 8.47%
32 | COc1ccc(OC)c(-n2c(=S)[nH]c3cc(C(=O)N(C)Cc4ccccc4)ccc3c2=O)c1 | – | inconclusive: 0.0858%
33 | Oc1ccccc1C1=Nc2nc3ccccc3n2C(c2ccccc2)C1 (configuration not stated) | inconclusive: 16.4 µM [falling, partial curve] | –
34 | S=C1SCN(Cc2ccccc2)CN1Cc1ccccc1 | inconclusive: 25.1 µM [cytotoxic, single point] | –
35 | Cc1[nH]c2ccc(C(=O)OC(C)C(=O)N(C)c3ccccc3)cc2c1C (configuration not stated) | – | inconclusive: 6.87%
36 | c1ccc(Cc2nnc3sc(-c4cccs4)nn23)cc1 | – | inconclusive: -7.11%
37 | O=C(Nc1cccc(Cl)c1)O/N=C\c1ccncc1 | – | inconclusive: 27.7%
38 | O=C(Cc1ccc(Br)cc1)N/N=C/c1cccnc1 | – | inactive: 0.426%
39 | Fc1ccc(CNc2nc(-c3cccnc3)nc3ccccc23)cc1 | – | inconclusive: 18%
40 | O=C(NCCc1ccccc1)C1CCCN(C(=O)NC2CCCCC2)C1 (configuration not stated) | – | inconclusive: -1.34%
41 | O=C(Cc1ccccc1)N/N=C/c1ccc(Cl)cc1Cl | – | inconclusive: 8.85%
42 | COc1ccc(/C=C/c2cc(-c3ccc(C)cc3)o[n+]2C)cc1 | inconclusive: 11.2 µM [falling, partial curve] | –

Row | SMILES | Potency | activity change, negative = inhibition
43 | C=CCOc1ccc(/C=C/C(C)=N\O)cc1 | inconclusive: 11.2 µM [falling, partial curve] | –
44 | Cc1nnc(SCc2ccc3c(c2)OCO3)s1 | – | inconclusive: 17.3%
45 | CCOC(=O)c1ccc(-n2c(C)nc3c(cnn3-c3ccc(Cl)cc3)c2=O)cc1 | – | inactive: -3.92%
46 | CCOc1ccc(-n2c(C)c(C(=O)OC)c3cc(O)ccc32)cc1 | – | inactive: 0.222%
47 | COc1cccc(CNc2nnnn2C)c1 | – | inactive: -3.51%
48 | CCCOCCOC(=O)c1[nH]c2c(c1C)C(=O)CC(c1cc(OC)ccc1OC)C2 (configuration not stated) | inconclusive: 2.91 µM [falling, partial curve] | –
49 | Cn1c(=O)c2c(ncn2CCCC(=N)N2CCOCC2)n(C)c1=O | – | inconclusive: 7.35%
50 | COc1ccc2nc(-c3ccc(Cl)cc3)cc(C(=O)O)c2c1 | inconclusive: 25.1 µM [falling, partial curve] | –
51 | COc1ccc(OC)c(C2=NOC(C(=O)NCC3CCCO3)C2)c1 (configuration not stated) | – | inconclusive: 4.29%
52 | CCN1/C(=C/c2cccc[n+]2C)Sc2ccc(OC)cc21 | – | inactive: 2.54%
53 | N=c1c(C(=O)NCc2ccco2)cc2c(=O)n3ccccc3nc2n1Cc1ccc(Cl)cc1 | – | inactive: -0.5%
54 | CC(C)C(=O)COc1c2occc2cc2ccc(=O)oc12 | – | inconclusive: 0.716%
55 | N#Cc1c(N)nc(N)nc1Nc1ccc(Br)cc1 | – | inconclusive: -7.19%
56 | C/C(=N/NC(=O)CNC(=O)COc1ccccc1)c1ccc(Cl)cc1 | – | inconclusive: 4.05%
57 | O=C(O)c1cc(N=Cc2c(O)c3ccccc3oc2=O)ccc1O | inconclusive: 7.08 µM [falling, partial curve] | –
58 | COc1ccc(C(=O)Nc2cc(Cl)ccc2N2CCOCC2)cc1S(=O)(=O)N1CCOCC1 | – | inconclusive: -16.5%
59 | CCC(=O)Nc1ccc(C(=O)COC(=O)Cc2ccsc2)cc1 | – | inconclusive: -0.424%
60 | CC(C)(C)c1ccc(-n2ncc3c2CCCC3NC(=O)CN2CCCC2=O)cc1 (configuration not stated) | – | inactive: -2.53%
61 | CC(C)N=C1NN=C(c2ccc(F)cc2)CS1 | inconclusive: 15.8 µM [falling, single point] | –
62 | O=C(Nc1ccc(Nc2ccccc2)cc1)c1cccc(F)c1 | – | inconclusive: -13.6%
63 | CCN(CC)c1ccc(NC(=O)COC(=O)c2ccc3ccccc3n2)cc1 | inconclusive: 23.1 µM [falling, single point] | –

An excerpt of these results, as a markdown table.

| Row | SMILES | Potency | activity change, negative = inhibition |
| --- | --- | --- | --- |
| 53 | N=c1c(C(=O)NCc2ccco2)cc2c(=O)n3ccccc3nc2n1Cc1ccc(Cl)cc1 | – | inactive: -0.5% |
| 54 | CC(C)C(=O)COc1c2occc2cc2ccc(=O)oc12 | – | inconclusive: 0.716% |
| 55 | N#Cc1c(N)nc(N)nc1Nc1ccc(Br)cc1 | – | inconclusive: -7.19% |
| 56 | C/C(=N/NC(=O)CNC(=O)COc1ccccc1)c1ccc(Cl)cc1 | – | inconclusive: 4.05% |

(more compounds)

Row | SMILES | Potency | activity change, negative = inhibition
64 | O=C(CNC(=O)c1cc2c(n(-c3ccccc3)c1=O)CCCC2=O)c1ccccc1 | – | inconclusive: 14%
65 | Cc1nn(C)c(C(=O)NNC(=S)NCC(C)C)c1Cl | – | inconclusive: 7.59%
66 | Cc1ccc(N2N=C(c3ccc(F)cc3)CC2c2ccco2)cc1 (configuration not stated) | inconclusive: 11.2 µM [rising, partial curve, poor fit] | –
67 | O=C(O)c1ccccc1NS(=O)(=O)c1cccc2cccnc12 | – | inconclusive: 8.01%
68 | CCCCCOC(=O)c1ccc(OC(=O)c2cncc(Br)c2)cc1 | – | inconclusive: 2.5%
69 | COc1cc(NS(=O)(=O)c2ccc(NC(=O)/C(=C/c3ccccc3Cl)NC(=O)c3ccccc3)cc2)nc(OC)n1 | – | inconclusive: 6.22%
70 | CCOC(=O)C(C)c1ccc2cc(OC)ccc2c1 (configuration not stated) | – | inconclusive: 17.8%
71 | C/C(=N\NC(=O)c1ccc2c(c1)OCO2)c1ccco1 | inconclusive: 10 µM [falling, partial curve] | –
72 | CCOc1ccc2nc(SCc3ccccc3C#N)sc2c1 | – | inconclusive: 24.7%
73 | c1ccc(-c2nc(NCC3CCCO3)c3oc4ccccc4c3n2)cc1 (configuration not stated) | inconclusive: 20.6 µM [rising, partial curve, poor fit] | –
74 | Fc1ccc(NC(=S)NNc2ncc(C(F)(F)F)cc2Cl)c(F)c1 | inconclusive: 35.5 µM [falling, single point] | –
75 | COc1ccc(CNC(=O)c2cc(C(C)=O)c[nH]2)cc1 | – | inconclusive: -1.35%
76 | COc1ccccc1NCC(O)COc1ccc(C(C)(C)C)cc1 (configuration not stated) | inconclusive: 25.1 µM [falling, single point] | –
77 | O=C(CCC(=O)Nc1ccccc1Cl)NN=C1CCCC1 | – | inconclusive: -2.51%
78 | COc1ccc(C)cc1NC(=O)c1cccc(C(=O)Nc2cc(C)ccc2OC)c1 | – | inconclusive: -14.7%
79 | COc1cc(/C=N/N(C)c2ccccc2)ccc1O | inconclusive: 18.4 µM [falling, single point] | –
80 | N#CC(C#N)=C1C=CC=CN1/C(=C\c1ccccc1Cl)C(=O)c1ccccc1 | – | inconclusive: 12%
81 | Cc1n[nH]c(C)c1CCNCc1ccc(OCC(O)CN2CCCCC2)cc1 (configuration not stated) | – | inactive: 2.81%
82 | Cc1ccc(S(=O)(=O)c2nc(NN(C)C)sc2Cl)cc1 | – | inconclusive: 2.11%
